The target of this experiment is Pa oa1 (Periplaneta americana, UniProt Q7YWB7). In words: Competitive binding against 3H-yohimbine, Pa oa1 membranes. The settings on record: about 2 nM 3H-yohimbine.

Amino acid sequences for entries named in this document (tags omitted).
UniProt Q7YWB7, entry or part of it: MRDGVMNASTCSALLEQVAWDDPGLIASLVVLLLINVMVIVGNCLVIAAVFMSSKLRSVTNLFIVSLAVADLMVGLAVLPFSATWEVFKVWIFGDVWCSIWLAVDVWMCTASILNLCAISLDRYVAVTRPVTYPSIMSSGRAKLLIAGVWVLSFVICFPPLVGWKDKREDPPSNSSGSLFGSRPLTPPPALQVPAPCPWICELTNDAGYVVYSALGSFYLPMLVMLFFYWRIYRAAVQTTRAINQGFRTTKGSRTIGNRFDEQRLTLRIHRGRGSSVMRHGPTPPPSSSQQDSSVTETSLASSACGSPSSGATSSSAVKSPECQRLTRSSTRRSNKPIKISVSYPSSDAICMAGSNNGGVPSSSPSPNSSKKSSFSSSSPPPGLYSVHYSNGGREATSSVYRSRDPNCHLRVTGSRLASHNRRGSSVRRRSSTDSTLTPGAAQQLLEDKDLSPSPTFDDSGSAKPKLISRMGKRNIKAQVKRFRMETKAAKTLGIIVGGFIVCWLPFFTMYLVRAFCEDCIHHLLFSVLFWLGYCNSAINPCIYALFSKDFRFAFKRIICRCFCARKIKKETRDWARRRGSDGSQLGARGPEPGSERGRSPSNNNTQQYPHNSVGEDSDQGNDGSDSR

In turn, `CN1CCN2c3ccccc3Cc3ccccc3C2C1` (stereo not shown) [Mianserin] registered a Ki of 48 ± 13 nM.
